Taken from: PubChem BioAssay AID493246 (Drosophila RNAi Screening Center, 2011)
In all, the deposit lists about 21,000 reagents; this is an unselected part of those with a known target gene and a result. Over the whole deposit, 429 (2%) are marked active. 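Values are raw and not normalised between plates; calls rest on per-plate z-scores that were not deposited.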 A number with no mark means an inactive call. Not given: the amount of reagent, the time to read-out.

Test: 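Genes fly cells need to grow and stay alive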 (primary screen)
System: Drosophila Kc and S2R+ cells
Knock-down reagent: long dsRNA against Drosophila genes
Measured: 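Cell number per well after knock-down, printed as raw plate values; calls were based on per-plate z-scores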
Scale: Kc cell number and S2R+ cell number: higher = more cells remaining
Active means: 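Active when the per-plate z-score of cell number is 3 or more in the direction of fewer cells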

What did the screen give for CG7365 [DRSC10824]?
Kc cell number, rep 1: 1.72e6; Kc cell number, rep 2: 1.75e6; S2R+ cell number, rep 1: 1.38e6; S2R+ cell number, rep 2: 1.37e6

For Dhc93AB (Dynein heavy chain at 93AB) [DRSC16644], how do the results read?
Kc cell number, rep 1: 1.16e6; Kc cell number, rep 2: 1.27e6; S2R+ cell number, rep 1: 1.10e6; S2R+ cell number, rep 2: 1.14e6

With grass (Gram-positive Specific Serine protease) [DRSC15911], how do the results read?
Kc cell number, rep 1: 1.50e6; Kc cell number, rep 2: 1.52e6; S2R+ cell number, rep 1: 1.07e6; S2R+ cell number, rep 2: 1.15e6

For CG7886 [DRSC16333], how do the results read?
Kc cell number, rep 1: 1.40e6; Kc cell number, rep 2: 1.36e6; S2R+ cell number, rep 1: 1.12e6; S2R+ cell number, rep 2: 1.20e6

With CG3106 [DRSC18279], what was measured?
Kc cell number, rep 1: 6.08e5; S2R+ cell number, rep 1: 9.07e5

How did the screen score Dph2 (Diphthamide biosynthesis 2) [DRSC16222]?
Kc cell number, rep 1: 1.49e6; Kc cell number, rep 2: 1.54e6; S2R+ cell number, rep 1: 1.20e6; S2R+ cell number, rep 2: 1.32e6

With spab (space blanket) [DRSC07112], what was measured?
Kc cell number, rep 1: 1.52e6; Kc cell number, rep 2: 1.62e6; S2R+ cell number, rep 1: 1.33e6; S2R+ cell number, rep 2: 1.41e6

What did the screen give for Obp44a (Odorant-binding protein 44a) [DRSC06838]?
Kc cell number, rep 1: 1.46e6; Kc cell number, rep 2: 1.58e6; S2R+ cell number, rep 1: 1.22e6; S2R+ cell number, rep 2: 1.32e6

For CG2909 [DRSC18241], what does the deposit list?
Kc cell number, rep 1: 1.74e6; Kc cell number, rep 2: 1.58e6; S2R+ cell number, rep 1: 1.11e6; S2R+ cell number, rep 2: 1.26e6

Which result is listed for CG5033 [DRSC07410]?
Kc cell number, rep 1: 1.26e6; Kc cell number, rep 2: 1.36e6; S2R+ cell number, rep 1: 1.02e6; S2R+ cell number, rep 2: 1.08e6

For pns (pinstripe) [DRSC08598], how do the results read?
Kc cell number, rep 1: 1.40e6; Kc cell number, rep 2: 1.45e6; S2R+ cell number, rep 1: 1.03e6; S2R+ cell number, rep 2: 1.38e6

For Mink (Mitotic spindle and nuclear protein) [DRSC14291], what does the deposit list?
Kc cell number, rep 1: 1.54e6; Kc cell number, rep 2: 1.62e6; S2R+ cell number, rep 1: 1.20e6; S2R+ cell number, rep 2: 1.30e6

What did the screen give for Elp4 (Elongator complex protein 4) [DRSC02999]?
Kc cell number, rep 1: 1.25e6; Kc cell number, rep 2: 1.14e6; S2R+ cell number, rep 1: 1.03e6; S2R+ cell number, rep 2: 1.18e6

What did the screen give for CG33234 [DRSC07994]?
Kc cell number, rep 1: 1.65e6; Kc cell number, rep 2: 1.80e6; S2R+ cell number, rep 1: 9.96e5; S2R+ cell number, rep 2: 1.18e6

How did the screen score form3 (formin 3) [DRSC10195]?
Kc cell number, rep 1: 1.58e6; Kc cell number, rep 2: 1.29e6; S2R+ cell number, rep 1: 1.25e6; S2R+ cell number, rep 2: 1.21e6

Which result is listed for form3 (formin 3) [DRSC10297]?
Kc cell number, rep 1: 1.31e6; Kc cell number, rep 2: 1.38e6; S2R+ cell number, rep 1: 1.27e6; S2R+ cell number, rep 2: 1.16e6

What is on record for form3 (formin 3) [DRSC11024]?
Kc cell number, rep 1: 1.37e6; Kc cell number, rep 2: 1.51e6; S2R+ cell number, rep 1: 1.15e6; S2R+ cell number, rep 2: 1.26e6

What did the screen give for Ak6 (Adenylate kinase 6) [DRSC07274]?
Kc cell number, rep 1: 1.62e6; Kc cell number, rep 2: 1.70e6; S2R+ cell number, rep 1: 1.40e6; S2R+ cell number, rep 2: 1.43e6

With bur (burgundy) [DRSC03163], what was measured?
Kc cell number, rep 1: 1.25e6; Kc cell number, rep 2: 1.39e6; S2R+ cell number, rep 1: 1.12e6; S2R+ cell number, rep 2: 1.11e6

With CG15701 [DRSC06572], what does the deposit list?
Kc cell number, rep 1: 1.62e6; Kc cell number, rep 2: 1.75e6; S2R+ cell number, rep 1: 1.26e6; S2R+ cell number, rep 2: 1.43e6

What is on record for CG3224 [DRSC18295]?
Kc cell number, rep 1: 1.35e6; Kc cell number, rep 2: 1.42e6; S2R+ cell number, rep 1: 9.24e5; S2R+ cell number, rep 2: 1.09e6

No new results follow: entries from further up.
CG33234 [DRSC07994] — Kc cell number, rep 1: 1.65e6; Kc cell number, rep 2: 1.80e6; S2R+ cell number, rep 1: 9.96e5; S2R+ cell number, rep 2: 1.18e6
form3 (formin 3) [DRSC10195] — Kc cell number, rep 1: 1.58e6; Kc cell number, rep 2: 1.29e6; S2R+ cell number, rep 1: 1.25e6; S2R+ cell number, rep 2: 1.21e6
